Measured values taken from PMC5431889, “Stapled BIG3 helical peptide ERAP potentiates anti-tumour activity for breast cancer therapeutics” (Scientific Reports, 2017).
No constants are given. Whether binding was seen depends on the method and setting. In cells and extracts the contact can be indirect. Some entries that bind do so weakly or less than the wild type.

Chains of the proteins cited; added tags and fusions are not shown.
UniProt Q99623: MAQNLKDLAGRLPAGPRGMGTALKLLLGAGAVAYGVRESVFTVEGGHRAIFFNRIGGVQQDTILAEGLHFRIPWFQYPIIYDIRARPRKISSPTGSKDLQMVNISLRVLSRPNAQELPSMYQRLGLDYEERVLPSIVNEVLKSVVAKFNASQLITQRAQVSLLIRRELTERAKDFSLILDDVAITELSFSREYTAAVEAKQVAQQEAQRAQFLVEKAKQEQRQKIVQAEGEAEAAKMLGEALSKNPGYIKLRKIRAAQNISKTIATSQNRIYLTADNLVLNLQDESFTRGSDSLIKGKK

Molecular target: prohibitin 2 (human (endogenous in MCF-7 and KPL-3C)) (UniProt Q99623)
Test: co-IP; same co-IP as a2, read as displacement: synthetic peptide added to MCF-7 cells, loss of PHB2 from anti-BIG3 immunoprecipitates; only the binder purified

B1: ERα activity-regulator synthetic peptide (native ERAP; 11R-GGG-QMLSDLTLQLRQR) (peptide)
peptide: RRRRRRRRRRRGGGQMLSDLTLQLRQR
notes: membrane-permeable polyarginine (11R) and GGG linker, printed as 11R-GGG; also called unstapled original ERAP; dominant-negative peptide; source: synthetic peptide
- binding: binds
